Assay results from article doi:10.1101/2025.09.02.671137 (bioRxiv, 2025).
No constants are given. Whether binding was seen depends on the method and setting. Some results given as binding are weak or reduced against the parent protein; the word gives no strength.

Biological target: Cdc13-K504E (K504E point mutant of full-length Cdc13) (S. cerevisiae) (UniProt P32797)
Assay: SEC

B1: Cdc13-K504E (K504E point mutant of full-length Cdc13) (protein, UniProt P32797 1-924)
chain: MDTLEEPECPPHKNRIFVSSSKDFEGYPSKAIVPVQFVALLTSIHLTETKCLLGFSNFERRGDQSQEDQYLIKLKFKDRGSERLARITISLLCQYFDIELPDLDSDSGASPTVILRDIHLERLCFSSCKALYVSKHGNYTLFLEDIKPLDLVSVISTISTKSTNSSKHSSSELISECDLNNSLVDIFNNLIEMNRDEKNRFKFVKLIHYDIELKKFVQDQQKVLSQKSKAAAINPFFVPNRLGIPYIESQNEFNSQLMTLNVDEPTTDISNMGEEMHDSADPIEDSDSSTTSSTGKYFSSKSYIQSQTPERKTSVPNNWHDDDSGSKRKRKLSFHSPNASSIRKAISYEQLSLASVGSVERLEGKIVGMNPPQFASINEFKYCTLKLYFTQLLPNVPDKVLVPGVNCIEIVIPTRERICELFGVLNCQSDKISDILLLEKPDRISVEVERILWDNDKTASPGMAVWSLKNISTDTQAQAQVQVPAQSSASIDPSRTRMSKMAREDPTIEFCQLGLDTFETKYITMFGMLVSCSFDKPAFISFVFSDFTKNDIVQNYLYDRYLIDYENKLELNEGFKAIMYKNQFETFDSKLRKIFNNGLRDLQNGRDENLSQYGIVCKMNIKVKMYNGKLNAIVRECEPVPHSQISSIASPSQCEHLRLFYQRAFKRIGESAISRYFEEYRRFFPIHRNGSHLAKLRFDEVKHEPKKSPTTPALAEHIPDLNADVSSFDVKFTDISSLLDSSARLPRPQQTHKSNTLYSCEGRIIAIEYHASDLCFHITNELPLLQTRGLAPERVLQLHIITSKNFAYFFNRSSAYLQRQPLEEKYTQLAQFLGHSFKFNITSSLTLFPDTTVALQIWCPIECTFRELQQQLAHPKVAAAPDSGSLDCAINATVNPLRLLAAQNGVTVKKEEDNDDDAGAVPTS
With B1 the binding was “binds”.
